# Several values for one entry are separate records, joined by “and”; a condition that tells them apart may be missing. Equal values may be shown once. About 6,100 (1.1%) of roughly 580,000 compounds were called active. The inconclusive results got no clear call from the source; some entries with a clear call stand among them for comparison. Calls come from the whole dose curve; as a rule, active = well fitted inhibition curve with a large enough effect; inconclusive = small, poorly fitted or top-dose-only effect, or another doubt; inactive = no such curve, though single readings can be large or run the other way. A potency beside an inconclusive call is a rough fit, not a confirmed value.
# Amino acid sequences for entries named in this document (tags omitted).
# UniProt P18054, whole entry, looked up: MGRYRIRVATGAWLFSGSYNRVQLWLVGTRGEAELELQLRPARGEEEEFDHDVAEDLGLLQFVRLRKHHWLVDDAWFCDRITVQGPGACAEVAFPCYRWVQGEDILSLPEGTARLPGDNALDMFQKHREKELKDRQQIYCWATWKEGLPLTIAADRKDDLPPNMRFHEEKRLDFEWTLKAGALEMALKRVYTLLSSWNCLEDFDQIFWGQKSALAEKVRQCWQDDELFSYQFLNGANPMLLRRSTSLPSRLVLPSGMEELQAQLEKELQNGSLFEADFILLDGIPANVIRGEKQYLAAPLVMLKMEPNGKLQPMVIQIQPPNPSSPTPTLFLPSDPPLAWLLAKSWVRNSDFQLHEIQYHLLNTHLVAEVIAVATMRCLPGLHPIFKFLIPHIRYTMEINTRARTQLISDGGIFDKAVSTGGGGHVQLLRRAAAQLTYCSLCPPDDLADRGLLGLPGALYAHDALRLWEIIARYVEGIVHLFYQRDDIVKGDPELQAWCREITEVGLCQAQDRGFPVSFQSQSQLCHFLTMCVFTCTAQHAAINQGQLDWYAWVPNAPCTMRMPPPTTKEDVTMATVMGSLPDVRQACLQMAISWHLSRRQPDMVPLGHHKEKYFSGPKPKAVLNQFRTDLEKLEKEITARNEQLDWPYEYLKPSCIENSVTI
# Target: Polyunsaturated fatty acid lipoxygenase ALOX12 (Homo sapiens) (UniProt P18054)
# Assay: Primary qHTS assay for inhibitors of human arachidonate 12S-lipoxygenase (ALOX12): Round 2
# Details: purified 12hLO, xylenol orange hydroperoxide absorbance; activity change, negative = inhibition: at 108 µM (top of the series) unless noted
# Procedure, shortened: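 Hydroperoxide product was detected by ferrous iron/xylenol orange as the 573 to 405 nm absorbance ratio. Arachidonic acid at 40 uM (final) was turned over for 30 min at room temperature by 150 nM human 12hLO, pH 7.0 Hepes buffer, after 15 min compound preincubation.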
# % is set by controls: 0 for no effect and ±100 for the full control effect; potency is the fitted concentration of half-maximal effect.
Compound,Potency,"activity change, negative = inhibition"
CCCOc1cc(NCc2ccccc2)c2ncn(C(C)C)c2c1,"inconclusive: 70.8 µM [inhibitor, partial curve, poor fit]",–
O=C1/C(=C/c2cccc(Br)c2)Cc2ccccc21,"inconclusive: 39.8 µM [inhibitor, single point]",–
COc1ccc(C(=O)n2c(-c3ccco3)nc3ccccc32)cc1,–,inactive: -15.6% [at 57.4 µM]
CC(N)C1CC1 (stereo not drawn),–,inactive: -28.8%
Cn1c2ccccc2c2cc(C(=O)N3CCN(CCO)CC3)sc21,"inconclusive: 44.7 µM [inhibitor, partial curve, poor fit]",–
Cc1ccc(-n2nnnc2SCC(=O)Nc2ccc(N3CCOCC3)cc2)cc1C,"inconclusive: 100 µM [inhibitor, single point]",–
CCC(C)NC(=O)Nc1sc(C)c(C)c1C#N (stereo not drawn),"inconclusive: 14.1 µM [inhibitor, partial curve, poor fit]",–
Cc1oc(-c2cccc(Oc3ccccc3)c2)nc1CN1CCC(C#N)CC1,"inconclusive: 25.1 µM [inhibitor, full curve]",–
O=C(NCC1Cc2cc(F)cc(-c3cccnc3)c2O1)c1cnn(-c2ccccc2)c1 (stereo not drawn),–,inactive: 5.15%
CCOC(=O)C(=O)NN=C(c1ccccc1)c1ccccc1,"inconclusive: 39.8 µM [inhibitor, partial curve, poor fit]",–
CC(=O)Nc1ccc(CN(C)Cc2ccccc2C(F)(F)F)cc1,"inconclusive: 112 µM [inhibitor, single point]",–
O=c1[nH]c(-[n+]2ccc3ccccc3c2)c(/C=N/N=C(\[O-])c2ccccc2)s1,–,inactive: -3.79%
CC(C)c1noc(-c2cccn3c(CNC(=O)CCCc4ccccc4)nnc23)n1,–,inactive: 47.3%
O=C1NC(=O)C2C1C(c1cccs1)NN2Cc1ccccc1 (stereo not drawn),–,inactive: -15.1%
NCC1Cc2ccccc2O1 (stereo not drawn),–,inactive: 41.4%
N#Cc1ccc(-c2cccnc2)nc1SCC(=O)Nc1sc2c(c1C#N)CCC2,–,inactive: -17%
O=C(NC(=S)NCc1ccc(Cl)cc1Cl)c1ccco1,"inconclusive: 50.1 µM [inhibitor, partial curve, poor fit]",–
C=CCn1c(-c2cccn(Cc3ccc(Cl)cc3)c2=O)n[nH]c1=S,"inconclusive: 112 µM [inhibitor, partial curve, poor fit]",–
Cc1ccc2c(c1)N1C(=O)c3ccccc3C1C1=C(CC(C)(C)CC1=O)N2 (stereo not drawn),"inconclusive: 0.891 µM [inhibitor, full curve, poor fit]",–
O=C(c1ccncc1)N1CCC[C@@]2(CCN(C(c3ccccc3)c3ccccc3)C2)C1,–,inactive: -13.4% [at 57.4 µM]
CCCn1c(NCc2c[nH]c3ccccc23)nc2ccccc21,"inconclusive: 79.4 µM [inhibitor, single point] and inconclusive: 14.1 µM [inhibitor, partial curve, poor fit]",–
CCCCOc1ccc(NC(=O)c2cccc(Cl)c2)c2cccnc12,–,inactive: -6.38%
COC(=O)c1cc(CN2CCN(c3ccccc3C)CC2)ccc1O,"inconclusive: 0.398 µM [inhibitor, full curve, poor fit]",–

Compound,Potency,"activity change, negative = inhibition"
CC1(C)[C@H](Cc2cc(CC3CCCCC3)on2)C[C@@H]1NC(=O)C1CCC1,"inconclusive: 112 µM [inhibitor, single point]",–
Cn1cccc1CN1CCC2(Cc3ccccc3CNC2=O)C1 (stereo not drawn),–,inactive: 9.62% [at 6.33 µM]
CCOc1cc(S(=O)(=O)Nc2ccc(CC)cc2)ccc1Cl,"inconclusive: 25.1 µM [inhibitor, partial curve, poor fit]",–
Cc1ccc(-c2cc(C(=O)N3CC(C)OC(C)C3)c3ccccc3n2)o1 (stereo not drawn),"inconclusive: 44.7 µM [inhibitor, partial curve, poor fit]",–
Cc1ccc(-n2[nH]c(C)c(N=Nc3cccc(-c4cccc(C(=O)O)c4)c3O)c2=O)cc1C,"inconclusive: 3.61 µM [inhibitor, partial curve]",–
Cc1ccccc1N1CCN(C(=O)c2cc3cn(C4CC4)cc3s2)CC1,–,inactive: 41.7%
Cc1cc(C)c(CN2CCC3(CC2)Cc2ccccc2CNC3=O)c(C)c1,–,inactive: 2.66% [at 6.33 µM]
Cc1ccc(C(=O)SC2=NCCS2)cc1,"inconclusive: 22.4 µM [inhibitor, partial curve, poor fit]",–
Cc1nc(NC(=S)NC(=O)c2cccs2)sc1C(=O)N(C)C,"inconclusive: 3.16 µM [inhibitor, full curve]",–
CN1C(=O)C2(c3ccccc31)C1CCCC=C1C(C#N)=C(N)C2(C#N)C#N (stereo not drawn),active: 44.7 µM,–
CN(CC(=O)NC(=O)NC1CC1)Cc1cccc(C#N)c1,–,inactive: -29%
COc1ccccc1C(CCNCc1ccccc1)c1ccc(OC(C)C)cc1 (stereo not drawn),"inconclusive: 89.1 µM [inhibitor, partial curve, poor fit]",–
O=C(c1cc(-c2ccccc2)nc2ccccc12)N1CCc2ccccc2C1,–,inactive: -18%
CC(C)NC(=O)N1CCOC2(CCN(C(=O)CCCN)CC2)C1,"inconclusive: 7.94 µM [inhibitor, full curve]",–
Cc1ccc(NC(=O)CSc2nc(O)c(Cc3ccccc3)c(=O)n2-c2ccccc2)cc1,"inconclusive: 79.4 µM [inhibitor, single point]",–
COc1ccc(-c2cc(C(F)F)n3ncc(C(=O)N4CCc5ccccc54)c3n2)cc1,–,inactive: -5.89%
CCc1ccccc1NC(=O)CNC(=O)c1cc(=O)c2cc(C)ccc2o1,"inconclusive: 44.7 µM [inhibitor, partial curve, poor fit]",–
Cc1cc(C)c(NC(=S)N2CCCC2C(=O)O)c(C)c1 (stereo not drawn),"inconclusive: 44.7 µM [inhibitor, partial curve]",–
COc1ccc(C2Cn3nnc(-c4nc(-c5ccc(F)c(F)c5)no4)c3CO2)cc1 (stereo not drawn),–,inactive: 46.9%
N#Cc1ccccc1CN1CCCc2ccccc21,"inconclusive: 28.2 µM [inhibitor, partial curve, poor fit]",–
COC(=O)C1=C(C)N(Cc2ccccc2)C(=NCCc2ccccn2)N[C@H]1c1cccc(C(F)(F)F)c1,"inconclusive: 79.4 µM [inhibitor, partial curve, poor fit]",–
Cc1ccc(S(=O)(=O)N2CCN(C(=O)CNC(=O)c3sc4ccccc4c3Cl)CC2)cc1,"inconclusive: 56.2 µM [inhibitor, partial curve, poor fit]",–
Cc1ccc(C(=O)Nc2nc(-c3ccco3)c(-c3ccco3)s2)o1,"inconclusive: 3.98 µM [inhibitor, full curve, poor fit]",–

Compound,Potency,"activity change, negative = inhibition"
O=C(Nc1cccc(O)c1)c1cc(-c2ccco2)nc2ccccc12,"inconclusive: 50.1 µM [inhibitor, partial curve, poor fit]",–
CC(C)n1ncc2c(C(=O)N3CCN(c4ccc(F)cc4)CC3)cc(-c3ccccc3)nc21,"inconclusive: 100 µM [inhibitor, single point]",–
CN1C[C@H](NC(=O)NC2CCCC2)CCC[C@@H](C(=O)NCc2cc(F)cc(F)c2)CC1=O,–,inactive: 11.8%
COc1ccc(-c2nc(C3CC3)nc3c2CN(C(=O)c2ccccc2)CC3)cc1,"inconclusive: 70.8 µM [inhibitor, partial curve]",–
CCc1nnc(NS(=O)(=O)c2ccc(NC(=S)NC(=O)c3cccnc3)cc2)s1,"inconclusive: 22.4 µM [inhibitor, partial curve, poor fit]",–
O=[N+]([O-])c1cc(-c2csc(NCCc3nc4cc(Cl)c(Cl)cc4n3CCCO)n2)ccc1Cl,"inconclusive: 50.1 µM [inhibitor, partial curve, poor fit]",–
Cc1cccc(NC(=O)N2CC3CN(C)CC(C2)O3)c1,–,inactive: 3.33%
COc1ccccc1/C=C/c1nc(C#N)c(NCc2ccc3c(c2)OCO3)o1,"inconclusive: 56.2 µM [inhibitor, partial curve, poor fit]",–
Cc1cc(NC(=O)c2cc(-c3ccncc3)nc3ccccc23)nn1C,–,inactive: 22%
COc1ccc(CC(=O)Nc2nc(C)cs2)cc1S(=O)(=O)N1CCOCC1,–,inactive: -50.5%
COC(=O)COc1ccc2ccc(=O)oc2c1,–,inactive: 6.7%
O=c1oc2ccc([N+](=O)[O-])cc2cc1-c1csc(Nc2ccccc2)n1,"inconclusive: 63.1 µM [inhibitor, partial curve, poor fit]",–
CC1CCN(c2oc(COc3ccccc3F)nc2C#N)CC1,"inconclusive: 28.2 µM [inhibitor, partial curve, poor fit]",–
CCN1C(C(=O)c2ccccc2)=C(NC(=O)c2ccc(Cl)cc2)c2ccccc2S1(=O)=O,"inconclusive: 63.1 µM [inhibitor, partial curve, poor fit]",–
COc1cc(OC)cc(-c2ccc3ncc4ccc(=O)n(-c5ccc(N6CCNCC6)c(C(F)(F)F)c5)c4c3c2)c1,"inconclusive: 15.3 µM [inhibitor, partial curve, poor fit]",–
Cc1ccccc1NC(=O)CSc1nc2c(cc1C#N)CCCC2,–,inactive: 13.2%
N#Cc1ccc(CN2CC3(Cc4ccccc4C(=O)N3)C2)cc1,–,inactive: 13.1% [at 6.33 µM]
COc1ccc(N(CC(=O)NCCSC2CCCCC2)S(=O)(=O)c2ccccc2)cc1OC,–,inactive: -2.17%
O=C(Nc1cc(S(=O)(=O)N2CCOCC2)ccc1N1CCCC1)c1ccc(F)cc1,active: 39.8 µM,–
COCc1cc(C[C@@H]2CC[C@H](O)[C@@H](CNCc3ccc(Cl)cc3)O2)no1,"inconclusive: 35.5 µM [inhibitor, full curve]",–
COc1ccc2c(c1)c1c(c(=O)n(-c3ccc(C)cc3)c(=O)n1CC(=O)NCC1CCCO1)n2C (stereo not drawn),"inconclusive: 100 µM [inhibitor, single point]",–
CCn1c(SCc2cc(OC)c(OC)cc2Br)nc2cc(S(N)(=O)=O)ccc21,–,inactive: -8.99%

# Four structures from above, sorted by molar mass, rising:
Compound,Potency,"activity change, negative = inhibition"
CC1CCN(c2oc(COc3ccccc3F)nc2C#N)CC1,"inconclusive: 28.2 µM [inhibitor, partial curve, poor fit]",–
Cc1cc(NC(=O)c2cc(-c3ccncc3)nc3ccccc23)nn1C,–,inactive: 22%
COc1ccc(-c2nc(C3CC3)nc3c2CN(C(=O)c2ccccc2)CC3)cc1,"inconclusive: 70.8 µM [inhibitor, partial curve]",–
COc1ccc(N(CC(=O)NCCSC2CCCCC2)S(=O)(=O)c2ccccc2)cc1OC,–,inactive: -2.17%

# Source: PubChem BioAssay AID1671190 (National Center for Advancing Translational Sciences (NCATS), 2021)
